Results reported in patent US4649131A (Hoffmann-La Roche Inc., priority 1985, dated 1987).

Tests used:
[1] = general procedure: Boc solid-phase peptide synthesis; benzhydrylamine (BHA) resin, methylbenzhydrylamine (MBHA) resin, benzyl ester resin; dicyclohexylcarbodiimide (DCC); symmetric anhydride procedure; conditions: whole synthesis
[2] = general procedure: Boc solid-phase peptide synthesis; BHA resin; dicyclohexylcarbodiimide (DCC); symmetric anhydride procedure; conditions: whole synthesis
[3] = general procedure: Boc solid-phase peptide synthesis; Boc-Arg(Tos)-resin (Bachem); dicyclohexylcarbodiimide (DCC); symmetric anhydride procedure; conditions: whole synthesis, scale 0.13 mmol

Question: With [desNH2 Tyr^1,Ala^15 ]hGRF(1-29)-NH2 as the substance, how does the isolated yield ([1]; on 200 mg crude portion) read?
Answer: The isolated yield was 5% yield.

Question: Which isolated yield ([1]; on 120 mg crude portion) does the source give for [desNH2 Tyr^1 ]hGRF(1-29)-NH2 here?
Answer: The isolated yield was 30% yield.

Question: What about the crude mass ([1]; scale 0.13 mmol) of the same substance?
Answer: Its crude mass is 0.79 g.

Question: For [Leu^15 ]hGRF(1-29)-NH2, which crude mass ([2]; scale 0.28 mmol) is on record?
Answer: Its crude mass is 536 mg.

Question: With [Ala^15 ]hGRF(1-29)-OH as the substance, how does the crude mass [3] read?
Answer: The crude mass was 262 mg.

Question: For “[desNH2 -Tyr^1,D-Ala^2,Ala^15 ]hGRF(1-29)-NH2”, which isolated yield ([1]; on 200 mg crude portion) is on record?
Answer: Its isolated yield is 9%.

Question: For [D-Ala^2, Ala^15 ]hGRF(1-29)-NH2, which crude mass ([2]; scale 0.16 mmol) is on record?
Answer: Its crude mass is 575 mg.

Question: With [Val^15 ]-hGRF(1-29)-NH2 as the substance, how does the crude mass ([2]; scale 0.28 mmol) read?
Answer: The crude mass was 625 mg.

Question: Which crude mass ([2]; scale 0.30 mmol) does the source give for [Ala^15 ]-hGRF(1-29)-NH2 here?
Answer: The crude mass was 1010 mg.

Question: And the isolated mass ([2]; scale 0.30 mmol)?
Answer: Its isolated mass is 71.3 mg.

Question: And the isolated yield ([2]; scale 0.30 mmol)?
Answer: The isolated yield was 7.05%.
